# PubChem BioAssay AID1259254 – NCATS | 2017
# Screen: 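Finding genes that stop cells copying their DNA twice in one cycle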 (primary screen)
# Cell system: human HCT116 colorectal cancer cells
# Reagent: single siRNA against human genes
# Duration: 3 days
# Measured: 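Nuclei stained with Hoechst and imaged; cell-cycle phase assigned by DNA content; G2 share scaled per plate, non-targeting siRNA 0%, GMNN siRNA 100%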
# Scale: G2 robust z-score and G2 cells, % of GMNN control: higher = more G2 cells, more excess DNA replication; raw share of cells in G2: higher = larger share of cells with G2 DNA content
# Call rule: 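An siRNA counts as active if its G2 robust z-score lies at least 5 MADs above the screen median; here such calls match roughly 38% of GMNN control or more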
# Shown is one part, drawn at random, of about 59,000 reagents tested. Over the whole deposit, about 1,550 (2.6%) are marked active. 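G2 share is only a proxy for re-replication; each gene was hit by three separate siRNAs, and active genes were retested.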 Raw values are not corrected between plates. Unmarked entries are inactive. The numbers tell different reagents against one gene apart. Not stated in the record: the amount of reagent.
gene,reagent,G2 robust z-score,"G2 cells, % of GMNN control",raw share of cells in G2 (%)
SYNDIG1 (synapse differentiation inducing 1),1,0.928,9.49,8.39
SYNDIG1 (synapse differentiation inducing 1),2,-0.118,2.14,5.24
SYNDIG1 (synapse differentiation inducing 1),3,0.875,9.12,4.87
SF3A2 (splicing factor 3a subunit 2),1,1.24,11.7,10.5
SF3A2 (splicing factor 3a subunit 2),2,1.79,15.6,10.1
SF3A2 (splicing factor 3a subunit 2),3,1.76,15.4,9.54
OR1G1 (olfactory receptor family 1 subfamily G member 1),1,-0.197,1.58,5.83
OR1G1 (olfactory receptor family 1 subfamily G member 1),2,-0.93,-3.57,2.48
OR1G1 (olfactory receptor family 1 subfamily G member 1),3,-0.761,-2.39,2.5
CD5 (CD5 molecule),1,-0.8,-2.66,4.02
CD5 (CD5 molecule),2,-0.424,-0.0154,4.09
CD5 (CD5 molecule),3,1.83,15.8,10.6
TRIM49 (tripartite motif containing 49),1,-0.296,0.882,4.76
TRIM49 (tripartite motif containing 49),2,2.62,21.4,13.3
TRIM49 (tripartite motif containing 49),3,4.02,31.3,20.1
ZNF736 (zinc finger protein 736),1,-0.436,-0.0999,3.89
ZNF736 (zinc finger protein 736),2,-0.906,-3.4,2.22
ZNF736 (zinc finger protein 736),3,-0.255,1.17,3.56
SYTL1 (synaptotagmin like 1),1,-0.185,1.67,4.16
SYTL1 (synaptotagmin like 1),2,0.231,4.59,4.41
SYTL1 (synaptotagmin like 1),3,1.44,13.1,11.8
EIPR1 (EARP complex and GARP complex interacting protein 1),1,1.12,10.8,9.94
EIPR1 (EARP complex and GARP complex interacting protein 1),2,4.54,34.9,17.7
EIPR1 (EARP complex and GARP complex interacting protein 1),3,0.736,8.14,6.23
CPSF4L (cleavage and polyadenylation specific factor 4 like),1,0.0352,3.21,4.86
CPSF4L (cleavage and polyadenylation specific factor 4 like),2,0.751,8.25,6.24
CPSF4L (cleavage and polyadenylation specific factor 4 like),3,0.0688,3.45,4.15
JCADP1 (JCAD pseudogene 1),1,-0.0193,2.83,5.01
JCADP1 (JCAD pseudogene 1),2,-0.985,-3.96,2.04
JCADP1 (JCAD pseudogene 1),3,-0.473,-0.36,2.97

4 entries from above, arranged by “G2 cells, % of GMNN control”, high to low.
gene,reagent,G2 robust z-score,"G2 cells, % of GMNN control",raw share of cells in G2 (%)
TRIM49 (tripartite motif containing 49),3,4.02,31.3,20.1
TRIM49 (tripartite motif containing 49),2,2.62,21.4,13.3
ZNF736 (zinc finger protein 736),1,-0.436,-0.0999,3.89
ZNF736 (zinc finger protein 736),2,-0.906,-3.4,2.22

Continued.
gene,reagent,G2 robust z-score,"G2 cells, % of GMNN control",raw share of cells in G2 (%)
GPLD1 (glycosylphosphatidylinositol specific phospholipase D1),1,0.561,6.91,7.75
GPLD1 (glycosylphosphatidylinositol specific phospholipase D1),2,0.0102,3.04,4.74
GPLD1 (glycosylphosphatidylinositol specific phospholipase D1),3,-0.365,0.402,5.42
UPF2 (UPF2 regulator of nonsense mediated mRNA decay),1,-0.894,-3.32,2.9
UPF2 (UPF2 regulator of nonsense mediated mRNA decay),2,5.52 (active),41.8,25.1
UPF2 (UPF2 regulator of nonsense mediated mRNA decay),3,-0.0407,2.68,5.08
NOXA1 (NADPH oxidase activator 1),1,0.144,3.98,5.13
NOXA1 (NADPH oxidase activator 1),2,2.15,18.1,13.6
NOXA1 (NADPH oxidase activator 1),3,-0.303,0.838,6.06
SLC22A23,1,-0.0126,2.88,5.83
SLC22A23,2,2.35,19.5,13.3
SLC22A23,3,3.43,27.1,9.85
CRIPT (CXXC repeat containing interactor of PDZ3 domain),1,1.05,10.4,10
CRIPT (CXXC repeat containing interactor of PDZ3 domain),2,4.11,31.9,17.3
CRIPT (CXXC repeat containing interactor of PDZ3 domain),3,-0.542,-0.843,3.1
CSNK1G2 (casein kinase 1 gamma 2),1,0.195,4.34,7.04
CSNK1G2 (casein kinase 1 gamma 2),2,0.429,5.98,7.43
CSNK1G2 (casein kinase 1 gamma 2),3,0.801,8.6,7.06
TSNAX (translin associated factor X),1,-0.291,0.923,5.99
TSNAX (translin associated factor X),2,0.883,9.18,7.5
TSNAX (translin associated factor X),3,-0.789,-2.58,3.3
CAPN8 (calpain 8),1,-0.526,-0.737,3.52
CAPN8 (calpain 8),2,0.488,6.4,6.19
CAPN8 (calpain 8),3,0.257,4.78,6.68
CAPN8 (calpain 8),4,0.702,7.9,6.65
CAPN8 (calpain 8),5,-0.707,-2.01,2.55
CAPN8 (calpain 8),6,-1.43,-7.13,1.07
"MALL (mal, T cell differentiation protein like)",1,-0.684,-1.85,4.82
"MALL (mal, T cell differentiation protein like)",2,0.374,5.6,6.32
"MALL (mal, T cell differentiation protein like)",3,3.69,28.9,15
GINM1 (glycosylated integral membrane protein 1),1,-0.287,0.948,4.47
GINM1 (glycosylated integral membrane protein 1),2,-0.483,-0.43,3.2
GINM1 (glycosylated integral membrane protein 1),3,0.894,9.26,4.52
TRHDE (thyrotropin releasing hormone degrading enzyme),1,0.951,9.66,8.93
TRHDE (thyrotropin releasing hormone degrading enzyme),2,-0.957,-3.77,3.57
TRHDE (thyrotropin releasing hormone degrading enzyme),3,-0.794,-2.62,2.93
MYH7B (myosin heavy chain 7B),1,-0.301,0.848,4.65
MYH7B (myosin heavy chain 7B),2,-1.22,-5.64,2.18
MYH7B (myosin heavy chain 7B),3,-1.04,-4.33,3.86
